# Screen size: about 400,000 compounds; about 13,000 (3.2%) were called active. Calls come from the whole dose curve; as a rule, active = well fitted cell-killing curve with a large enough effect; inconclusive = small, poorly fitted or top-dose-only effect, or effect the other way; inactive = flat fitted curve, though single readings scatter. The inconclusive results got no clear call from the source.
# Assay: qHTS assay for MDR1-selective chemotherapeutics: Primary screen using the drug-selected MDR subline cells KB-V1; note: nearly all actives have a fitted effect of over 60% in size
# Details: KB-V1 MDR cells viability, CellTiter-Glo, 72 h; activity change, negative = cytotoxicity: at 46.1 µM (top of the series)
# Procedure, shortened: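 Potencies derive from concentration-effect curves fitted to normalized luminescence (CellTiter-Glo) of KB-V1 cells treated for 72 h at 37 degrees C in phenol-red-free DMEM containing 10% FBS.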
# % is set by controls: 0 for no effect and ±100 for the full control effect.
row,SMILES,"activity change, negative = cytotoxicity"
1,CC(c1ccccc1)N1C(=O)c2ccc(C(=O)Nc3ccc(Br)cc3C(=O)O)cc2C1=O (stereo unspecified),inconclusive: -10.5%

# Reference: PubChem BioAssay AID1347076 (National Center for Advancing Translational Sciences (NCATS), 2019)
